Measured values: patent US20260284208A1, “SYSTEM” (Oxford University Innovation Limited, priority 2023, published 2026)
Further values from the same series stand in other lists.

System: library of 8,380 IKZF3 degrons (ZF-eGFP/mCherry reporter) in Jurkat cells
Assay: Pooled library screen (FACS, NGS, limma voom LogFC of positive vs negative read counts)
Assay type: cell-based, human
Description: A library of 8,380 IKZF3 degrons was cloned into pLVX-Sprout to create the eGFP/mCherry protein degradation reporter plasmid pool. A lentivirus pool was then generated using the Lenti-X lentiviral vector production method.
Jurkat cells were transduced at a multiplicity of infection of <0.3 with the lentivirus vector library in order to maximise the number of cells with a single integration. Transductions were carried out in 6 well TC-treated cell culture dishes (Falcon) with 3×10^6 cells per well. Cells were incubated for 2 days at 37° C. and 5% CO2 before the supernatant was removed and replaced with fresh media. 6 days post-transduction, mCherry+ cells were isolated via FACS using the FACS Aria Fusion (BD) in a buffer containing PBS (Gibco), 2 mM EDTA (Gibco), 25 mM HEPES (Sigma) and 1% BSA (Sigma). 8 days later, cells were treated with DMSO or a thalidomide analog for 18 hours at 37° C. and 5% CO2. mCherry+GFPlow and NOT(mCherry+GFPlow) cells were sorted by FACS using the FACS Aria Fusion (BD). DMSO treated cells were used to set the mCherry+GFPlow gate and dead cells were excluded from sorting by staining cells with 1 μg/mL DAPI (ThermoFisher). gDNA was isolated using the Maxwell RSC 48 (Promega). gDNA from cells that were unsorted and untreated were also isolated to determine the library representation on the day of compound treatment. Throughout the screen >600× coverage of the library was maintained. 3 biological replicates were carried out with a new transduction taking place each time.
A two-step PCR was used where the first PCR (PCR1) amplified the integrated degron sequence from gDNA and the second PCR (PCR2) added Illumina adaptors and barcodes to permit multiplexing. See Supp F for PCR1 and PCR2 primers. Q5 Hot Start High-Fidelity 2× Master Mix (New England Biolabs) was used for both PCRs. Sufficient gDNA was amplified in PCR1 in order to maintain >600× coverage and amplicons were purified using solid phase reversible immobilization (SPRI) beads (Beckman Coulter). Purified PCR1 products were analysed on the Tapestation 4200 (Agilent) to confirm purity prior to proceeding to PCR2. Sufficient PCR1 product was amplified in PCR2 in order to maintain >600× coverage and amplicons were run on a 2% agarose TAE gel. Target bands were excised and purified using the NucleoSpin Gel and PCR Clean-up Kit (Machery Nagel). Amplicons were analysed on the Tapestation 4200 and quantified using Qubit dsDNA HS kit (ThermoFisher). PCR products were pooled and sequenced as paired-reads on the NovaSeq (Illumina) using a SP2 200 cycles kit (Illumina).
Count distributions, percentage of read mapping, library coverage and replicate correlation per sample were assessed for QC purposes.
To carry out the library screen, we used the same plasmid construct as in our earlier flow cytometry assays, but pooling all 8,380 mutants together into one Jurkat population, ensuring a copy number of one plasmid per cell (FIG. 4B). […] These GFP-negative cells were then separated from the remaining GFP-positive population using fluorescence activated cell sorting (FACS). These two populations were then sequenced and the relative abundance of every mutant in both populations compared to provide a log FC value for each mutant sequence. This value indicated how frequently a sequence is observed in the GFP-negative population relative to the GFP-positive population, and therefore how effective a degron it is for that particular IMID compound.

`O=C1CCC(N2C(=O)c3ccc(N4CCOCC4)cc3C2=O)C(=O)N1` (stereo not drawn) [B03] was tested. Which B03_logFC (degron 1073 (SEQ ID NO 3542) 46F_47F_49E_50V_52G_53A_54Q_55F_67L) did it give?
The B03_logFC was 3.602.

And the B03_logFC (degron 1075 (SEQ ID NO 3516) 46F_47F_49E_50V_52G_53A_54S_55F_67L)?
The B03_logFC was 3.66.

What about the B03_logFC (degron 1076 (SEQ ID NO 3490) 46F_47F_49E_50V_52G_53A_54T_55F_67L) of the same compound?
The B03_logFC was 3.737.

And the B03_logFC (degron 1077 (SEQ ID NO 3616) 46F_47F_49E_50V_52G_53A_54V_55F_67L)?
The B03_logFC was 3.441.

What about the B03_logFC (degron 1141 (SEQ ID NO 3618) 46F_47F_49P_50I_52G_53A_54C_55F_67L) of the same compound?
The B03_logFC was 3.436.

And the B03_logFC (degron 1151 (SEQ ID NO 3517) 46F_47F_49P_50I_52G_53A_54N_55F_67L)?
Its B03_logFC is 3.658.

What about the B03_logFC (degron 1152 (SEQ ID NO 3617) 46F_47F_49P_50I_52G_53A_54P_55F_67L) of the same compound?
Its B03_logFC is 3.441.

What about the B03_logFC (degron 1153 (SEQ ID NO 3513) 46F_47F_49P_50I_52G_53A_54Q_55F_67L) of the same compound?
Its B03_logFC is 3.664.

And the B03_logFC (degron 1156 (SEQ ID NO 3538) 46F_47F_49P_50I_52G_53A_54T_55F_67L)?
Its B03_logFC is 3.613.

And the B03_logFC (degron 1191 (SEQ ID NO 3579) 46F_47F_49P_50V_52G_53A_54N_55F_67L)?
Its B03_logFC is 3.511.

What about the B03_logFC (degron 1193 (SEQ ID NO 3602) 46F_47F_49P_50V_52G_53A_54Q_55F_67L) of the same compound?
The B03_logFC was 3.472.

And the B03_logFC (degron 1196 (SEQ ID NO 3567) 46F_47F_49P_50V_52G_53A_54T_55F_67L)?
The B03_logFC was 3.538.

And the B03_logFC (degron 1512 (SEQ ID NO 3607) 46F_47H_49E_50I_52G_53A_54P_55F_67L)?
Its B03_logFC is 3.462.

And the B03_logFC (degron 1632 (SEQ ID NO 3637) 46F_47H_49P_50I_52G_53A_54P_55F_67L)?
The B03_logFC was 3.386.

What about the B03_logFC (degron 1692 (SEQ ID NO 3604) 46F_47I_49D_50I_52G_53A_54P_55F_67L) of the same compound?
The B03_logFC was 3.464.

What about the B03_logFC (degron 1752 (SEQ ID NO 3572) 46F_47I_49E_50I_52G_53A_54P_55F_67L) of the same compound?
The B03_logFC was 3.53.

What about the B03_logFC (degron 1792 (SEQ ID NO 3599) 46F_47I_49E_50V_52G_53A_54P_55F_67L) of the same compound?
Its B03_logFC is 3.484.

What about the B03_logFC (degron 1812 (SEQ ID NO 3622) 46F_47I_49N_50I_52G_53A_54P_55F_67L) of the same compound?
The B03_logFC was 3.429.

And the B03_logFC (degron 1872 (SEQ ID NO 3520) 46F_47I_49P_50I_52G_53A_54P_55F_67L)?
Its B03_logFC is 3.654.

What about the B03_logFC (degron 1912 (SEQ ID NO 3454) 46F_47I_49P_50V_52G_53A_54P_55F_67L) of the same compound?
The B03_logFC was 3.937.

And the B03_logFC (degron 2472 (SEQ ID NO 3619) 46F_47M_49E_50I_52G_53A_54P_55F_67L)?
Its B03_logFC is 3.432.

And the B03_logFC (degron 2512 (SEQ ID NO 3560) 46F_47M_49E_50V_52G_53A_54P_55F_67L)?
Its B03_logFC is 3.549.

And the B03_logFC (degron 2592 (SEQ ID NO 3593) 46F_47M_49P_50I_52G_53A_54P_55F_67L)?
Its B03_logFC is 3.489.

And the B03_logFC (degron 2632 (SEQ ID NO 3548) 46F_47M_49P_50V_52G_53A_54P_55F_67L)?
The B03_logFC was 3.588.

And the B03_logFC (degron 2952 (SEQ ID NO 3537) 46F_47Q_49E_50I_52G_53A_54P_55F_67L)?
Its B03_logFC is 3.615.

What about the B03_logFC (degron 2992 (SEQ ID NO 3591) 46F_47Q_49E_50V_52G_53A_54P_55F_67L) of the same compound?
The B03_logFC was 3.49.

What about the B03_logFC (degron 3072 (SEQ ID NO 3541) 46F_47Q_49P_50I_52G_53A_54P_55F_67L) of the same compound?
The B03_logFC was 3.604.

And the B03_logFC (degron 3132 (SEQ ID NO 3571) 46F_47R_49D_50I_52G_53A_54P_55F_67L)?
The B03_logFC was 3.531.

And the B03_logFC (degron 3192 (SEQ ID NO 3453) 46F_47R_49E_50I_52G_53A_54P_55F_67L)?
Its B03_logFC is 3.984.

What about the B03_logFC (degron 3232 (SEQ ID NO 3544) 46F_47R_49E_50V_52G_53A_54P_55F_67L) of the same compound?
Its B03_logFC is 3.599.

What about the B03_logFC (degron 3252 (SEQ ID NO 3596) 46F_47R_49N_50I_52G_53A_54P_55F_67L) of the same compound?
The B03_logFC was 3.487.

What about the B03_logFC (degron 3312 (SEQ ID NO 3485) 46F_47R_49P_50I_52G_53A_54P_55F_67L) of the same compound?
Its B03_logFC is 3.763.

What about the B03_logFC (degron 3352 (SEQ ID NO 3535) 46F_47R_49P_50V_52G_53A_54P_55F_67L) of the same compound?
The B03_logFC was 3.616.

What about the B03_logFC (degron 3792 (SEQ ID NO 3615) 46F_47T_49P_50I_52G_53A_54P_55F_67L) of the same compound?
The B03_logFC was 3.444.

And the B03_logFC (degron 3912 (SEQ ID NO 3534) 46F_47V_49E_50I_52G_53A_54P_55F_67L)?
Its B03_logFC is 3.616.

And the B03_logFC (degron 3952 (SEQ ID NO 3536) 46F_47V_49E_50V_52G_53A_54P_55F_67L)?
Its B03_logFC is 3.615.

And the B03_logFC (degron 4032 (SEQ ID NO 3507) 46F_47V_49P_50I_52G_53A_54P_55F_67L)?
Its B03_logFC is 3.683.

And the B03_logFC (degron 4080 (SEQ ID NO 3512) 46F_47W_49D_50I_52G_53A_54A_55F_67L)?
The B03_logFC was 3.668.

And the B03_logFC (degron 4081 (SEQ ID NO 3521) 46F_47W_49D_50I_52G_53A_54C_55F_67L)?
The B03_logFC was 3.652.

And the B03_logFC (degron 4086 (SEQ ID NO 3632) 46F_47W_49D_50I_52G_53A_54H_55F_67L)?
The B03_logFC was 3.407.

What about the B03_logFC (degron 4093 (SEQ ID NO 3509) 46F_47W_49D_50I_52G_53A_54Q_55F_67L) of the same compound?
The B03_logFC was 3.676.

What about the B03_logFC (degron 4094 (SEQ ID NO 3471) 46F_47W_49D_50I_52G_53A_54R_55F_67L) of the same compound?
The B03_logFC was 3.824.
